# Data as given in patent US20080069849A1, “Novel Antimicrobial Peptides” (Dermagen AB, priority 2004, published 2008).
# Part of at least one peptide drawing is inferred or uncertain, most often the ends. Where no end group is shown, it is not given here.
# Tested on: S. aureus
# Assay: Radial diffusion assay (RDA), S. aureus, strain not given
# Assay type: cell-based, Staphylococcus aureus
# Conditions: summary of Table 1
sequence,measurement,value
CKYITLLRRQLLRALKRGLR [Peptide 73],antimicrobial effect against S. aureus,significant antimicrobial effect
